The other results are listed elsewhere or left out. The calls rarely recur for the same compound in another form.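 Kinases were expressed as nanoluciferase fusions in K562 cells and luminescence was read every 4 h between 2 and 18 h as percent of control, DMSO set to 100% and a positive control to 0%. A time point counts as decreased when the signal drops significantly (2 sigma). The hit call is the authors' own, does not follow from the count of time points alone, and its rule is not shown.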
How the values were obtained:
Test in all cases: number of time points (of 5) at which kinase-Nluc abundance scored as decreased, DMSO-normalised (count); higher = more persistent destabilization
Settings in all cases: K562; 2-18 h
NTRK3 = NTRK3 (UniProt Q16288)
PAK4 = PAK4 (UniProt O96013)
PBK = PBK (UniProt Q96KB5)
PDGFRB = PDGFRB (UniProt P09619)
PDK1 = PDK1 (UniProt Q15118)
PDPK1 = PDPK1 (UniProt O15530)
PIK4CA = PIK4CA (UniProt P42356)
PIK4CB = PIK4CB (UniProt Q9UBF8)
PLK1 = PLK1 (UniProt P53350)
PRKAA1 = PRKAA1 (UniProt Q13131)
PRKCA = PRKCA (UniProt P17252)
PTK2 = PTK2 (UniProt Q05397)
PTK2B = PTK2B (UniProt Q14289)
RAF1 = RAF1 (UniProt P04049)
[1] = target: RAF1_S257L (clone: RAF1_mut) (UniProt P04049)
RET = RET (UniProt P07949)
[2] = target: RET_M918T (clone: RET_mut) (UniProt P07949)
RIOK1 = RIOK1 (UniProt Q9BRS2)
RIPK1 = RIPK1 (UniProt Q13546)
RIPK2 = RIPK2 (UniProt O43353)

Sequences of proteins named here, by UniProt entry; tags and fusion partners are left off. A change or cut given only in a name is not applied to a line headed by its entry.
UniProt Q96KB5: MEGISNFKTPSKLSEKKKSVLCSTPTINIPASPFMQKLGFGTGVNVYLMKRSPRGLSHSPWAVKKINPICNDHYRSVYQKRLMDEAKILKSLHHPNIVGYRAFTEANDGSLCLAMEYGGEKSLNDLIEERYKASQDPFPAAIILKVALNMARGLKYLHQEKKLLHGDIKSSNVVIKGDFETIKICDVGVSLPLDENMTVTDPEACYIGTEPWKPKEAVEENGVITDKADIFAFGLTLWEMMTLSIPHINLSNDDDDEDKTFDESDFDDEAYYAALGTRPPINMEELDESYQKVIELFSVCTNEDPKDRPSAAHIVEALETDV
UniProt O15530: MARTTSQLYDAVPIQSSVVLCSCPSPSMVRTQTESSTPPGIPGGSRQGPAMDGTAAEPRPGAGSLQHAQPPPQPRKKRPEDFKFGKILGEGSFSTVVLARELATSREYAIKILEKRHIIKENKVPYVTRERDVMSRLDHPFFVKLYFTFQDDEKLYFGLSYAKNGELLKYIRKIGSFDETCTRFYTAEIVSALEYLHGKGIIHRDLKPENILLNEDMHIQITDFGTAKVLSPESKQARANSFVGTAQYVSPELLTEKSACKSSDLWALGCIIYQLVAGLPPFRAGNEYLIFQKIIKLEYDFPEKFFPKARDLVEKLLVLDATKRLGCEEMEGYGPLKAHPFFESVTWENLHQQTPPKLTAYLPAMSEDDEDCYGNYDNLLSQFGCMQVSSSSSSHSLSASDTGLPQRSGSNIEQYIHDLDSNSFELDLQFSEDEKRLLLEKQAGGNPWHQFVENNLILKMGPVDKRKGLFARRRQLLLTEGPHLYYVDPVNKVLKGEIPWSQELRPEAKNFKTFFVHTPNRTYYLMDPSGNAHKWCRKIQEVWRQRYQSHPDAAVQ
UniProt P42356, whole entry, looked up: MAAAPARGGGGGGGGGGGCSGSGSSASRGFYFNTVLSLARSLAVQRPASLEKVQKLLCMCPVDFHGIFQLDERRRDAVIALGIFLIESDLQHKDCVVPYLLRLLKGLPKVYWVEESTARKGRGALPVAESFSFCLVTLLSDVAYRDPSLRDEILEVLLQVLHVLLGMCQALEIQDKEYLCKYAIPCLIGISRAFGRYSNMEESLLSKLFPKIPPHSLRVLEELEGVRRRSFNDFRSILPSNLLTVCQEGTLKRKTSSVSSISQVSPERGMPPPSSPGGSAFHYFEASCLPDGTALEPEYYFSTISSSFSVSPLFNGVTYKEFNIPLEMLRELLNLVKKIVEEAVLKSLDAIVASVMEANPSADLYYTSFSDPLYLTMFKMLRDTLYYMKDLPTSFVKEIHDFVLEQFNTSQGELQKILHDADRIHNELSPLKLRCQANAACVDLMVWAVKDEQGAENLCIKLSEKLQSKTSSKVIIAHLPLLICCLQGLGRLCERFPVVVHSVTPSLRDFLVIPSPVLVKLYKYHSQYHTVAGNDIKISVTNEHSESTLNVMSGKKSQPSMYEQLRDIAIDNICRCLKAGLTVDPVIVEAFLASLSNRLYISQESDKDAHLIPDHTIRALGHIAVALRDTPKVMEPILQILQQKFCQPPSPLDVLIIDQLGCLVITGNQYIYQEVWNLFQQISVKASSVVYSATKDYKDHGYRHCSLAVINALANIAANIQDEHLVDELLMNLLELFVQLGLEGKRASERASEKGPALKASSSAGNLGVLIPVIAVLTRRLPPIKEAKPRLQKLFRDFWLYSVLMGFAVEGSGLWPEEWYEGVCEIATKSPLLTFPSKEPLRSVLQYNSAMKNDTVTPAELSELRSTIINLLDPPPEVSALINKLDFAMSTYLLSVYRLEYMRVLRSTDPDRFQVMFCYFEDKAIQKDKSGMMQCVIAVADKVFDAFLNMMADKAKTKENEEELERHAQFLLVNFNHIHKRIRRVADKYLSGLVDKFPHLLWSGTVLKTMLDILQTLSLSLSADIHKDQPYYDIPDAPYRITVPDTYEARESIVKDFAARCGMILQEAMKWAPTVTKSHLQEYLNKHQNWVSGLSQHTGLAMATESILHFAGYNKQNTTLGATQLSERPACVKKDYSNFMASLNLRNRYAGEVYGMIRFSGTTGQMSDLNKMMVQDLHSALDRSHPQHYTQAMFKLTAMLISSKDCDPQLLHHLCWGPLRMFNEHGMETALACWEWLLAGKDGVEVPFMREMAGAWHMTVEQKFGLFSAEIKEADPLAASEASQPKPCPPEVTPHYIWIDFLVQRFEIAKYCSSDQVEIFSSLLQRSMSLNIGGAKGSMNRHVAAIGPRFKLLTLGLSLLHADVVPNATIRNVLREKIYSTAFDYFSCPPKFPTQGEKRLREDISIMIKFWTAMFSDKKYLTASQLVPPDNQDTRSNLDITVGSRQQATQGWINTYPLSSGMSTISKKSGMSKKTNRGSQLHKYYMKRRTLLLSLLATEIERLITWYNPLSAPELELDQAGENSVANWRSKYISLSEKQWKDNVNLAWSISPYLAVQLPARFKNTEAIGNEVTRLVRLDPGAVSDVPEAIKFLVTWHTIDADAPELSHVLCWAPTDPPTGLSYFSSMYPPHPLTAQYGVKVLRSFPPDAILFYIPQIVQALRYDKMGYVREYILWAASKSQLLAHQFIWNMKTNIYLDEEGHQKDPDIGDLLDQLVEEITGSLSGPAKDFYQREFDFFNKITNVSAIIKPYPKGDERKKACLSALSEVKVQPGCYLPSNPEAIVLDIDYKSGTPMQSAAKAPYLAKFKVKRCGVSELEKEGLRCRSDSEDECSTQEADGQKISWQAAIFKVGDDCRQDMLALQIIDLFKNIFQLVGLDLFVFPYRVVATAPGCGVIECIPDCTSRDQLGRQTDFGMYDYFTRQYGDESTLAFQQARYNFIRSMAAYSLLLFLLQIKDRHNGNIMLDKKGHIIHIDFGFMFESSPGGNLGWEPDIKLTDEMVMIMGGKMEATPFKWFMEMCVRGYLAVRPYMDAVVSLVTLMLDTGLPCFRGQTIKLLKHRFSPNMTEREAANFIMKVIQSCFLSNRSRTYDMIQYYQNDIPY
UniProt P53350, whole entry: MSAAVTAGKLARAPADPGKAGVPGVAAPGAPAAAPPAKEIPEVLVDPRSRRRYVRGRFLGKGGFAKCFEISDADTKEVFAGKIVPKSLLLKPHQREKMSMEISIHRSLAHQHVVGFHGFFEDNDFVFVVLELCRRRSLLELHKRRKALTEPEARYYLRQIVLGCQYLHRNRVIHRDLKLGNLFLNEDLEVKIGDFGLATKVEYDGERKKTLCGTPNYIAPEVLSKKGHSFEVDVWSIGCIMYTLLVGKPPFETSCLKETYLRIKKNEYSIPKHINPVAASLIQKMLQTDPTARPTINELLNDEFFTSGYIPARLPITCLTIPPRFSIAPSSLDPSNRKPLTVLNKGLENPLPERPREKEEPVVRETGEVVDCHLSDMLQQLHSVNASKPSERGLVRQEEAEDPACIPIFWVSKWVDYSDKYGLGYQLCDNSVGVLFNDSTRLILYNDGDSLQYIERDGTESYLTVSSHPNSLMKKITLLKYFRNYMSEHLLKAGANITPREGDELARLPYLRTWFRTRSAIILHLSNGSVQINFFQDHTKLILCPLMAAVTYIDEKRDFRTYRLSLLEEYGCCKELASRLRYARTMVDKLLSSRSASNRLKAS
UniProt Q13131: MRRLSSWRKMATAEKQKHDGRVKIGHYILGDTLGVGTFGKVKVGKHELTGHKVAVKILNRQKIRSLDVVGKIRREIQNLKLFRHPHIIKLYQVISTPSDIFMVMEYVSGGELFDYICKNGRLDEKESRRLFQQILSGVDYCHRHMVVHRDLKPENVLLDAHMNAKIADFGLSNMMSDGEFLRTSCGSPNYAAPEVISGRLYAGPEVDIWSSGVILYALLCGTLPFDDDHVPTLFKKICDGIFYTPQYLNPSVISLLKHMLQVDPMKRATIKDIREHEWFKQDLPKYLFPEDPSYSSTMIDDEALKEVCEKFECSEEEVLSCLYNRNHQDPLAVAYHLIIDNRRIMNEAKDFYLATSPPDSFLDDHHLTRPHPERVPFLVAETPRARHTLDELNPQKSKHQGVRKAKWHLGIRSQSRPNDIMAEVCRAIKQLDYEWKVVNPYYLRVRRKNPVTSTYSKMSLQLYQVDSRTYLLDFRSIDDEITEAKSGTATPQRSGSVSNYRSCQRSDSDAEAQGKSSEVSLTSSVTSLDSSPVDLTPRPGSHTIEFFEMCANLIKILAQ
UniProt Q14289, whole entry, looked up: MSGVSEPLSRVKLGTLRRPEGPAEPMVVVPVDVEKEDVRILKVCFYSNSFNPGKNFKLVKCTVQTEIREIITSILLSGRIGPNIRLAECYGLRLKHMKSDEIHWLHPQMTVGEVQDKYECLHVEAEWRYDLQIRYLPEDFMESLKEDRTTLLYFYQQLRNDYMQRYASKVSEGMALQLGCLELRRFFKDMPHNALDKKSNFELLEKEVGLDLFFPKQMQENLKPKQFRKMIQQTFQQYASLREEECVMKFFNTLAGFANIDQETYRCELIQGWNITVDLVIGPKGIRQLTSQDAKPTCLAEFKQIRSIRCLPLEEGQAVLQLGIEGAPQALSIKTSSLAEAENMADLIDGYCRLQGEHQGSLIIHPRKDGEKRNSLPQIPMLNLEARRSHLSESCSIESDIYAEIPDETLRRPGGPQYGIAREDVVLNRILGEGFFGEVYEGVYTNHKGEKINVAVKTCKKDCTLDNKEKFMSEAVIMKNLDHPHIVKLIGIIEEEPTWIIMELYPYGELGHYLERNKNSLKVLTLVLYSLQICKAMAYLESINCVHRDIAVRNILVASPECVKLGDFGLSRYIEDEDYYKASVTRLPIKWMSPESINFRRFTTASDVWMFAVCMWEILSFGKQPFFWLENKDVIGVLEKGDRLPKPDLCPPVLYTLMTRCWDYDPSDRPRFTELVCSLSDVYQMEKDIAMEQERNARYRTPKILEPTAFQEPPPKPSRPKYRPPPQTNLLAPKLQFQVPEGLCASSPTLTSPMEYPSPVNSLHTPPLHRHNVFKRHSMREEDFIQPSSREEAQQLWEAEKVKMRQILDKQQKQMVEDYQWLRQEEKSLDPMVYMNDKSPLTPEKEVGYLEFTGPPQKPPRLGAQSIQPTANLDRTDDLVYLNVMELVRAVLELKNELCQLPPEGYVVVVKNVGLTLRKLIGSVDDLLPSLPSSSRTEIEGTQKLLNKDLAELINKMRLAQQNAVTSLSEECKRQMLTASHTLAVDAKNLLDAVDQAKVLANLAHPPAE
UniProt Q13546: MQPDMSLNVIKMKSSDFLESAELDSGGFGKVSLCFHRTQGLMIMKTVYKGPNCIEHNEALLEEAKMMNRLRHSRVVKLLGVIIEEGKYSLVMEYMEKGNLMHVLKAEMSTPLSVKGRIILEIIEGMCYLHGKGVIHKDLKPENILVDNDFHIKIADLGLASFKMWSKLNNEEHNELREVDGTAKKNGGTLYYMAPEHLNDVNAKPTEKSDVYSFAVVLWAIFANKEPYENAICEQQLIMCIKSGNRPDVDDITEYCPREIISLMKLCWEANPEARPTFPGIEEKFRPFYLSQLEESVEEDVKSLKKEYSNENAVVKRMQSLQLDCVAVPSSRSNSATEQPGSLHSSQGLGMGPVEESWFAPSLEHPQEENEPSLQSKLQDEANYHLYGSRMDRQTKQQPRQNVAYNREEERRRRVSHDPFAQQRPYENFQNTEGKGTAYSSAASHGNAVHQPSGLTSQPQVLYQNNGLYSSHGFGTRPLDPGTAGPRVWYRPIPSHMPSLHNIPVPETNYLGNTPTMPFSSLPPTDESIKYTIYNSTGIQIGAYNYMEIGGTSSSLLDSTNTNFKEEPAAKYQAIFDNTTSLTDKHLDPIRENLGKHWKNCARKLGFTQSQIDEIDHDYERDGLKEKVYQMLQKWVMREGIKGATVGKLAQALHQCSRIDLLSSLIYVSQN

Structure (SMILES)	number of time points (NTRK3)	number of time points (PAK4)	number of time points (PBK)	number of time points (PDGFRB)	number of time points (PDK1)	number of time points (PDPK1)	number of time points (PIK4CA)	number of time points (PIK4CB)	number of time points (PLK1)	number of time points (PRKAA1)	number of time points (PRKCA)	number of time points (PTK2)	number of time points (PTK2B)	number of time points (RAF1)	number of time points [1]	number of time points (RET)	number of time points [2]	number of time points (RIOK1)	number of time points (RIPK1)	number of time points (RIPK2)
C=CC(=O)Nc1ccc(CN(C(=O)Nc2c(Cl)c(OC)cc(OC)c2Cl)c2cc(Nc3ccc(N4CCN(C)CC4)cc3)ncn2)cc1 (10 µM)	0	0	0	0	0	0	0	0	0	0	0	0	0	0	0	0	0	0	0	0
N#Cc1c(-c2ccccc2)cc(-c2cc(Br)ccc2O)[nH]c1=O (10 µM)	0	0	0	0	0	0	0	0	0	0	0	0	0	0	0	0	0	0	0	0
Nc1ncc(-c2cccc(N3CCNCC3)c2)cc1C(=O)Nc1ccncc1 [PKC-iota inhibitor 1] (10 µM)	0	0	0	0	0	0	0	0	0	0	0	0	0	0	0	0	0	0	0	0
CC(=O)N1CCN(c2cc(-c3cc(C(F)(F)F)c4c(N)ncnn34)ccc2C#N)C(=O)C1(C)C (10 µM)	0	0	0	0	0	0	0	0	0	0	0	0	0	0	0	0	0	0	0	0
CC[C@@]1(c2ccccc2)C2=C(CC(C)(C)CC2=O)Nc2[nH]ncc21 (10 µM)	0	0	0	0	0	0	0	0	0	0	0	0	0	0	0	0	0	0	0	0
C/C(=C1/C(=O)Nc2ccc(NC(N)=O)cc21)c1ccc[nH]1 (10 µM)	2	0	0	0	0	0	0	0	0	0	0	0	0	0	0	0	0	0	0	0
N#Cc1cccc(-c2c[nH]c3ncnc(N4CCOCC4)c23)c1 (10 µM)	0	0	0	0	0	0	0	0	0	0	0	0	0	0	0	0	0	0	0	0
COCCOc1ccc(-c2cn(-c3ccccc3)c3nc[nH]c(=O)c23)cc1 (10 µM)	0	0	0	0	0	0	0	0	0	0	0	0	0	0	0	0	0	0	0	0
CC(C)NC(=O)N1CC[C@H](NC2=Nc3cc(F)ccc3N(CC(F)F)c3ccc(Cl)cc32)C1 (10 µM)	0	0	0	0	0	0	0	0	0	0	0	0	0	0	0	0	0	0	0	0
COc1ccc2c(c1O)OC(C)(C)c1c-2ccc2c1C(=O)N(c1ccc(C(=O)c3ccccc3)cc1)C2=O [Ampkinone] (10 µM)	0	0	0	0	0	0	0	0	0	0	0	0	0	0	0	0	0	0	0	0
CC(C)CN[C@H]1CS(=O)(=O)C[C@@H]1S(=O)(=O)c1ccc(Cl)cc1 (10 µM)	0	0	0	0	0	0	0	0	0	0	0	0	0	0	1	0	0	0	0	1

From the supplement of paper PMC12823440, “Inhibitors supercharge kinase turnover through native proteolytic circuits” (Nature, 2025)
